According to PubChem BioAssay AID588520 (NMMLSC, 2011):
Among all 1,700 compounds or so, about 65 (4%) were called active. Rule as the data show it: active = Nile Red retention ratio vs DMSO above about 190%; inactive = the rest. This list holds what a sample rich in actives left over.

test system: Candida albicans drug resistance protein 2 (Cdr2) efflux pump, expressed in S. cerevisiae; assay: inhibitors of Candida albicans Cdr2 efflux pump, confirmation, S. cerevisiae AD/CaCDR2, flow cytometry, cherry pick 1, singleplex (AID 588520); details: at 10 µM, stronger effect = higher value;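 also: higher ratio means more blocking of Cdr2 efflux of the dye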

Row | Structure (SMILES) | Nile Red retention ratio vs DMSO
1 | CCN(CC)c1ccc([N+](=O)[O-])c2cccnc12 | inactive: 112%
2 | O=[N+]([O-])c1cnc2ccc3ccccc3c2c1 | inactive: 98.1%
